These are yes or no findings as the source states them, for the method shown. For some assays here: In cells and extracts the contact can be indirect. Some results given as binding are weak or reduced against the parent protein; the word gives no strength. Sequences can lack the tags named with a protein.
How the values were obtained:
[1] = target: vascular endothelial growth factor receptor-2 (VEGFR-2) (human) (UniProt P35968); experiment: cell surface biotinylation, non-biotinylated and biotinylated fractions immunoprecipitated with anti-VEGFR-2 and blotted with anti-c-Myc
[2] = target: vascular endothelial growth factor receptor-2 (VEGFR-2) (human) (UniProt P35968); experiment: co-immunoprecipitation (IP anti-c-Myc, blot anti-VEGFR-2) from HEK-293 cells treated with Brefeldin A (FIG. 7B)
[3] = target: vascular endothelial growth factor receptor-2 (VEGFR-2) (human) (UniProt P35968); experiment: conclusion drawn from the co-immunoprecipitation and cycloheximide-chase experiments
[4] = target: vascular endothelial growth factor receptor-2 (VEGFR-2) (human) (UniProt P35968); experiment: co-immunoprecipitation from lysates of HEK-293 cells co-expressing VEGFR-2 (IP anti-VEGFR-2, immunoblot anti-c-Myc)
[5] = target: vascular endothelial growth factor receptor-2 (VEGFR-2) (human) (UniProt P35968); experiment: summary of Example 1 (co-immunoprecipitation)
[6] = target: vascular endothelial growth factor receptor-2 (VEGFR-2) (human) (UniProt P35968); experiment: co-immunoprecipitation from HEK-293 lysates (IP anti-VEGFR-2, blot anti-Myc; FIG. 6A); wild type is the weaker reference
[7] = target: vascular endothelial growth factor receptor-2 (VEGFR-2) (human) (UniProt P35968); experiment: co-immunoprecipitation after cell surface biotinylation or Brefeldin A treatment
[8] = target: vascular endothelial growth factor receptor-2 (VEGFR-2) (human) (UniProt P35968); experiment: cell surface biotinylation, then IP with anti-VEGFR-2 and blot with anti-c-Myc (FIG. 7A)
[9] = target: vascular endothelial growth factor receptor-2 (VEGFR-2) (human) (UniProt P35968); experiment: co-immunoprecipitation from HEK-293 cells co-transfected with Myc-tagged PDCL3 and VEGFR-2, treated with Brefeldin A or vehicle (IP anti-c-Myc, immunoblot anti-VEGFR-2)
[10] = target: vascular endothelial growth factor receptor-2 (VEGFR-2) (human) (UniProt P35968); experiment: co-immunoprecipitation from HEK-293 lysates (IP anti-VEGFR-2, blot anti-Myc; FIG. 6A)
[11] = target: vascular endothelial growth factor receptor-2 (VEGFR-2) (human) (UniProt P35968); experiment: co-immunoprecipitation from HEK-293 lysates (IP anti-VEGFR-2, blot anti-Myc)
[12] = target: vascular endothelial growth factor receptor-2 (VEGFR-2) (human) (UniProt P35968); experiment: co-immunoprecipitation (FIG. 6A), retold in the detailed description

Chains of the proteins cited; added tags and fusions are not shown. Lines headed by an entry give the natural chain unless they say otherwise; changes in a name come on top.
UniProt P35968: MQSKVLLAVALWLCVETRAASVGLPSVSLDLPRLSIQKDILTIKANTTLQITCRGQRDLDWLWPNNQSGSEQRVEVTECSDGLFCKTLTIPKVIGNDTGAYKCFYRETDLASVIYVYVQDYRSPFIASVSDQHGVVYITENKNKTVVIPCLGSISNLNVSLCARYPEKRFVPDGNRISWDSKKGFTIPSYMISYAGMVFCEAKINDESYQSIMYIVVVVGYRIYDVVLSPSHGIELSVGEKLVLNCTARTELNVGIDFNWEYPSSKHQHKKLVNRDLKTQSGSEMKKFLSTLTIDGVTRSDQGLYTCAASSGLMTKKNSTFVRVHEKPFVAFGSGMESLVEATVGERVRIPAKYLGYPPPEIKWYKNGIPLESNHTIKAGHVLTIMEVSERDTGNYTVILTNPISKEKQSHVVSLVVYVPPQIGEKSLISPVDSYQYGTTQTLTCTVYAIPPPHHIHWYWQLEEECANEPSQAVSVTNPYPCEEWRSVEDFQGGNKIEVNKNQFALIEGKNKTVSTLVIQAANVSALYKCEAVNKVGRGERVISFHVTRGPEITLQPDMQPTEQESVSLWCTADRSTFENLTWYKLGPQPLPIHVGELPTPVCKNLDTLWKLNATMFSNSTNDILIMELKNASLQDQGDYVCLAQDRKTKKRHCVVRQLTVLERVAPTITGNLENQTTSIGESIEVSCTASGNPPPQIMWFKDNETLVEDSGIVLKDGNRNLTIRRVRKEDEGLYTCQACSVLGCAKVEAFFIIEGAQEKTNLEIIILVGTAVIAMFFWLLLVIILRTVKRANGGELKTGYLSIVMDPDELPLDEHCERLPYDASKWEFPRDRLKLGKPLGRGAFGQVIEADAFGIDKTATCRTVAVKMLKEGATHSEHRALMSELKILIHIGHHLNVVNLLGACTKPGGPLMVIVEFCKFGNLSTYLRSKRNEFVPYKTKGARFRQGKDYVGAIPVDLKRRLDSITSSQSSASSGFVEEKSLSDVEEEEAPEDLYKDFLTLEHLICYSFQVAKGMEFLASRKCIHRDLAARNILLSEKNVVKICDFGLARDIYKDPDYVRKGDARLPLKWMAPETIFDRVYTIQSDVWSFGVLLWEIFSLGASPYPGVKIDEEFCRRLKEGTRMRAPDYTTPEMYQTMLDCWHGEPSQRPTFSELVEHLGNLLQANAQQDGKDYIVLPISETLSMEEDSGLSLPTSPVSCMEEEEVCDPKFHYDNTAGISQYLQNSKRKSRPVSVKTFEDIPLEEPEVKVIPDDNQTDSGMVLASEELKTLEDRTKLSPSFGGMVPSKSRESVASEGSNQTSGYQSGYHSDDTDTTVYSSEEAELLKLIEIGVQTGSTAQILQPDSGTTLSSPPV

Measured: binding

B1: C-terminus Myc-tagged PDCL3 (human phosducin-like protein 3, wild-type) (protein, not shown: small tags and cut ends)
chain: MQDPNADTEWNDILRKKGILPPKESLKELEEEAEEEQRILQQSVVKTYEDMTLEELEDHEDEFNEEDERAIEMYRRRRLAEWKATKLKNKFGEVLEISGKDYVQEVTKAGEGLWVILHLYKQGIPLCALINQHLSGLARKFPDVKFIKAISTTCIPNYPDRNLPTIFVYLEGDIKAQFIGPLVFGGMNLTRDELEWKLSESGAIMTDLEENPKKPIEDVLLSSVRRSVLMKRDSDSEGD
modifications: N-terminal methionine acetylated (found by LC-MS/MS)
not listed: [10] | [11] | [12]
binds: all other assays above

B2: HA-tagged N-terminus methionine mutant PDCL3 (acetylation resistant) (protein, not shown: small tags and cut ends)
chain: QDPNADTEWNDILRKKGILPPKESLKELEEEAEEEQRILQQSVVKTYEDMTLEELEDHEDEFNEEDERAIEMYRRRRLAEWKATKLKNKFGEVLEISGKDYVQEVTKAGEGLWVILHLYKQGIPLCALINQHLSGLARKFPDVKFIKAISTTCIPNYPDRNLPTIFVYLEGDIKAQFIGPLVFGGMNLTRDELEWKLSESGAIMTDLEENPKKPIEDVLLSSVRRSVLMKRDSDSEGD
binds: [10] | [11] | [4] | [12] | [5]

— US20170274075A1
